{"sequences": {"note": "Chains of the proteins cited; added tags and fusions are not shown.", "UniProt Q0JBA9, entry or part of it": "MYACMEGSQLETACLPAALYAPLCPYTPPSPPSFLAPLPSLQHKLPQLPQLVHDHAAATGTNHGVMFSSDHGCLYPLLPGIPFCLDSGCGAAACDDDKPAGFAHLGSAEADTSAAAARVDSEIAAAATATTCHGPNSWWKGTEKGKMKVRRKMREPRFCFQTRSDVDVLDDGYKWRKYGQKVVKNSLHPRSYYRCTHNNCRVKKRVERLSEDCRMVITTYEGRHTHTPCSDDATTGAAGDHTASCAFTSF"}, "source": "paper PMC7819943", "about": "“Rice protein-binding microarrays: a tool to detect cis-acting elements near promoter regions in rice”", "note": "This is one part of the list.", "data": [{"molecular_target": "OsWRKY34 (Oryza sativa, UniProt Q0JBA9 1-250)", "assay": "protein-binding microarray (RPBM); PBS, 2% BSA, 51.3 ng/ul salmon testes DNA, 50 uM zinc acetate, 200 nM TF, 25 C, 1 h; high values mean tight binding", "details": "protein: recombinant; tags: N-terminal polyhistidine and DsRed monomer fusion (pET32a); label: CyDye5-dUTP incorporated in the synthesized complementary strand; 3' TTTTT single-stranded linker to array surface; dsDNA, one strand shown", "method_in_brief": "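The binding signal for each feature is its fluorescence intensity in arbitrary units. An Axon 4000B scanner was used to read a custom Agilent array that had been made double-stranded with Cy5-dUTP primer extension, blocked with 2% BSA, incubated at 25 °C for 1 h with 200 nM protein in PBS, 2% BSA, salmon testes DNA and 50 µM zinc acetate, and washed. The protein was an N-terminal polyhistidine–DsRed transcription factor fusion from E. coli BL21-CodonPlus, purified on Ni–NTA.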", "values": [{"sequence": "ACTTTACTATCAAGCTGTACTCGGATATTTTTTTTTCTTTCGGAGTCACCTAGTGCAG", "binding signal": "8910 fluorescence intensity (a.u.)"}, {"sequence": "ACTTTTGTCTGGATTAGAAACGTGAGTAATATATGCATATCGGAGTCACCTAGTGCAG", "binding signal": "9260 fluorescence intensity (a.u.)"}, {"sequence": "TCCATCCCCACCCTGCTCGACTCCCGCTTCGATGCCGACACGGAGTCACCTAGTGCAG", "binding signal": "10300 fluorescence intensity (a.u.)"}, {"sequence": "GCCATATCTTCTTTCTTCTTTCTCTGTCTTCTATTCCAGCCGGAGTCACCTAGTGCAG", "binding signal": "14800 fluorescence intensity (a.u.)"}, {"sequence": "GGGTGGGAGTCAGCTCAGCCTCAACTCACTTCCGCTAATTCGGAGTCACCTAGTGCAG", "binding signal": "10300 fluorescence intensity (a.u.)"}, {"sequence": "GCTCAAATCCGTTGGTCCCTGTAAAGCGTTGTACAAATGTCGGAGTCACCTAGTGCAG", "binding signal": "9830 fluorescence intensity (a.u.)"}, {"sequence": "ATGGTGATGTTATTCCAATCATGATATATGTTGACCTTTACGGAGTCACCTAGTGCAG", "binding signal": "10300 fluorescence intensity (a.u.)"}, {"sequence": "AAAAAATAGTCTACTCCTTCCACACCTCTCTCTTGCATGTCGGAGTCACCTAGTGCAG", "binding signal": "8760 fluorescence intensity (a.u.)"}, {"sequence": "CACGACCTTAAGCCTCATAATTTGGACAATCACAGCAACTCGGAGTCACCTAGTGCAG", "binding signal": "9170 fluorescence intensity (a.u.)"}, {"sequence": "CGGAATCCTCATTCGCTTCGCCTCGCTTCTCTTCTCCGAGCGGAGTCACCTAGTGCAG", "binding signal": "8020 fluorescence intensity (a.u.)"}, {"sequence": "ATATTTGCCGATCTCTTGCCGCCGACCCCGCCGCAATAACCGGAGTCACCTAGTGCAG", "binding signal": "10400 fluorescence intensity (a.u.)"}, {"sequence": "TTTTGATTGATTTGTCGCCGGCGACGCGCCGCCCGCCATGCGGAGTCACCTAGTGCAG", "binding signal": "11100 fluorescence intensity (a.u.)"}, {"sequence": "CTTTCATGAATATAATTGGTGTTTCTTTCCTACGTACTTCCGGAGTCACCTAGTGCAG", "binding signal": "9400 fluorescence intensity (a.u.)"}, {"sequence": "CTTTTTTCCCGTGTTGGCCGTCTTCTTTTTATCGTCTAGTCGGAGTCACCTAGTGCAG", "binding signal": "14100 fluorescence intensity (a.u.)"}, {"sequence": "TGCTCCAATCTTCTCGGTTCTTGAGGGGTTTTAAAGAGGACGGAGTCACCTAGTGCAG", "binding signal": "9040 fluorescence intensity (a.u.)"}, {"sequence": "TCTGATTCTTGCTTCGTGTGCTTCGCCGTCGCCGCCGCCGCGGAGTCACCTAGTGCAG", "binding signal": "8280 fluorescence intensity (a.u.)"}, {"sequence": "GGTGAGAGCCTGAGTTTGTTTGTTTCTTTTTCCGCGCGCACGGAGTCACCTAGTGCAG", "binding signal": "12000 fluorescence intensity (a.u.)"}, {"sequence": "GCTCTGGAAAGCTTCAGTTTGGCTTCTTTGATATCTTGTTCGGAGTCACCTAGTGCAG", "binding signal": "11200 fluorescence intensity (a.u.)"}, {"sequence": "TTGGATCGTTTGCTTTTCTTTGCCTTTCTTTTGGATTTCTCGGAGTCACCTAGTGCAG", "binding signal": "11700 fluorescence intensity (a.u.)"}, {"sequence": "TTCTCTCTTTCTTGTCTAATTTGGTCTGGTCACAGTTTATCGGAGTCACCTAGTGCAG", "binding signal": "11600 fluorescence intensity (a.u.)"}, {"sequence": "TAAGACAAACGGTCAAATATTTACTAAAAAGTCAACGGTGCGGAGTCACCTAGTGCAG", "binding signal": "8870 fluorescence intensity (a.u.)"}, {"sequence": "CCCCTCAGATTACAGTCGGCCGGTGCCGCTACCGCCGCGGCGGAGTCACCTAGTGCAG", "binding signal": "8970 fluorescence intensity (a.u.)"}, {"sequence": "CATCACTCTCTCTCTCTCGCTCGCTCGCTACTCCAGACTGCGGAGTCACCTAGTGCAG", "binding signal": "11700 fluorescence intensity (a.u.)"}, {"sequence": "GGGGTTTATTATTTTCCCGGGTTAAATTGCCACGTAAGCACGGAGTCACCTAGTGCAG", "binding signal": "10100 fluorescence intensity (a.u.)"}, {"sequence": "AACTTCCAACTTTACATCACATCTAAAACTTTTCTACACACGGAGTCACCTAGTGCAG", "binding signal": "8770 fluorescence intensity (a.u.)"}, {"sequence": "GGCACCTACTTCTACTTCCCCTCCCTCGCCTTCCACAAGGCGGAGTCACCTAGTGCAG", "binding signal": "8050 fluorescence intensity (a.u.)"}, {"sequence": "CCCATCCGGTTCTAGGTTCTTATATATTGGGACGGAGGGACGGAGTCACCTAGTGCAG", "binding signal": "8230 fluorescence intensity (a.u.)"}, {"sequence": "ATTTTGCGGTGGTTGGATTGGAGGGAGGGAAATTAATTGACGGAGTCACCTAGTGCAG", "binding signal": "10800 fluorescence intensity (a.u.)"}, {"sequence": "AAATTATTGTCTTCACATCCATCAACTTTTAGTCTCATGTCGGAGTCACCTAGTGCAG", "binding signal": "9260 fluorescence intensity (a.u.)"}, {"sequence": "TAAACATCAGTCTATTTACTGCTATGCATTTTGGCATTTTCGGAGTCACCTAGTGCAG", "binding signal": "9720 fluorescence intensity (a.u.)"}, {"sequence": "CGAGGGTGGTGGCTGGTGCGGAAATTGAGGAGTTCAATCACGGAGTCACCTAGTGCAG", "binding signal": "9660 fluorescence intensity (a.u.)"}, {"sequence": "GATATCCGGTTTTGTGGTTTAGGGTCATGGATTAGATTTCCGGAGTCACCTAGTGCAG", "binding signal": "14900 fluorescence intensity (a.u.)"}, {"sequence": "GGCCAACACGTTCCCGGTCTATCGTTACCTATTCTTGTACCGGAGTCACCTAGTGCAG", "binding signal": "11600 fluorescence intensity (a.u.)"}, {"sequence": "CAGCCGCCCTACGTCAGCCAAGTCCAACGACAACGCCCAACGGAGTCACCTAGTGCAG", "binding signal": "8200 fluorescence intensity (a.u.)"}, {"sequence": "TATAGGTCCAATCTAATTTGTATCCCTTGACCGCAATACCCGGAGTCACCTAGTGCAG", "binding signal": "8580 fluorescence intensity (a.u.)"}, {"sequence": "TAGACTGTATCATCAAAATTTTGGGTCTTATTATGCGTTTCGGAGTCACCTAGTGCAG", "binding signal": "9580 fluorescence intensity (a.u.)"}, {"sequence": "TCACTCTAATTTTACTTTGACCTCACACTATTACAGCATTCGGAGTCACCTAGTGCAG", "binding signal": "8800 fluorescence intensity (a.u.)"}, {"sequence": "TACTCATCAGTTCATCCGTGATTTCAGCCATTTGTTCCAACGGAGTCACCTAGTGCAG", "binding signal": "11500 fluorescence intensity (a.u.)"}, {"sequence": "ACTGTTTAGCTAGCGCTTTAATCTGTCTGCGTAATTTGTTCGGAGTCACCTAGTGCAG", "binding signal": "9230 fluorescence intensity (a.u.)"}, {"sequence": "CGTTATGTGCCGTGTGAGTTTTTCTGTTCCTGCTCATGCTCGGAGTCACCTAGTGCAG", "binding signal": "13000 fluorescence intensity (a.u.)"}, {"sequence": "TTTTCGCACTTTTTTCGCGCTTGATTTTTTTCCATAAAGACGGAGTCACCTAGTGCAG", "binding signal": "9130 fluorescence intensity (a.u.)"}, {"sequence": "ACTATAAATTTGTAGCACACGACTCTTCTCTTTTCTTTTTCGGAGTCACCTAGTGCAG", "binding signal": "10400 fluorescence intensity (a.u.)"}, {"sequence": "GCGTGAGTTGTGGCTGAGTGGGTTTGGCCATTGTAATCTCCGGAGTCACCTAGTGCAG", "binding signal": "10100 fluorescence intensity (a.u.)"}, {"sequence": "CGCCGTCTCCTCGTGTAACCCTAGCTTAGTGGATTAGTTTCGGAGTCACCTAGTGCAG", "binding signal": "9880 fluorescence intensity (a.u.)"}, {"sequence": "TATACACATTTCATTATCTTTCTTTTTTTCCTAAAAACTCCGGAGTCACCTAGTGCAG", "binding signal": "8590 fluorescence intensity (a.u.)"}, {"sequence": "CTCTGCTTTAATCGCACTCGCATCCCACTGCTTTGCTTTCCGGAGTCACCTAGTGCAG", "binding signal": "11000 fluorescence intensity (a.u.)"}, {"sequence": "GTTCACCGCATATTCGTTTTTCTCCAATGCGTAGCAGTAACGGAGTCACCTAGTGCAG", "binding signal": "10700 fluorescence intensity (a.u.)"}, {"sequence": "TCTTCCTCTGCGTGGGCCGGGGCGGAGGGAGGGAGGGGAACGGAGTCACCTAGTGCAG", "binding signal": "16300 fluorescence intensity (a.u.)"}, {"sequence": "GGGCGGAGGCGGGGATCGCGGCGGGAGGGGTGGATCCATGCGGAGTCACCTAGTGCAG", "binding signal": "17400 fluorescence intensity (a.u.)"}, {"sequence": "AGTCCGTGCTGCAGATCTGCTCTTTTCTCTTCGTTTAACTCGGAGTCACCTAGTGCAG", "binding signal": "10300 fluorescence intensity (a.u.)"}, {"sequence": "CCTCCTTTGTTCTTGCTCCTCTTTGCACGCAAAGAATCGGCGGAGTCACCTAGTGCAG", "binding signal": "9110 fluorescence intensity (a.u.)"}, {"sequence": "GCTTGAACTGCCTTTTAAAATTTATCATTACTGGATTTTGCGGAGTCACCTAGTGCAG", "binding signal": "8910 fluorescence intensity (a.u.)"}, {"sequence": "CTAGTAGTATAGGGAGGGAGCGGGCGGGTGATCGCTAGGCCGGAGTCACCTAGTGCAG", "binding signal": "8190 fluorescence intensity (a.u.)"}, {"sequence": "CAAAATTTTCATTTTTTGGGGTGCCTTTTTCACCTTCTTGCGGAGTCACCTAGTGCAG", "binding signal": "9750 fluorescence intensity (a.u.)"}]}]}
